Data as given in PubChem BioAssay AID1259259 (Sanger Institute, 2017).

Aim: 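Kinase silencing that lowers colorectal cancer cell viability alone or with drugs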 (primary screen)
Cells: SW1463 human colorectal cancer cells
Reagent: siRNA pool against human genes
Challenge: DMSO vehicle, or one anchor drug: BYL719 at 1 µM, cetuximab at 5 µg/ml, or trametinib at 10 nM
Measurement: 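Viability as fraction of control pool 2 (non-targeting), replicate mean; knock-down robust z-score without any drug; synergy score averaged for each anchor drug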
Reading the numbers: robust z-score, knock-down alone: higher = more viable cells after knock-down; viability, knock-down alone: higher = more viable cells; synergy score with BYL719 and synergy score with cetuximab and synergy score with trametinib: higher = stronger synergy (synthetic lethal) with drug
Hit rule: 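a robust z-score under -3 for knock-down with no drug marks the gene as essential, meaning viability loss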
Calls: active = essential: viability loss from knock-down alone; inactive = no change from knock-down alone
The deposit covers 794 reagents; shown is a part drawn at random. 9 of all reagents (1.1%) were called active. 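Calls rest on knock-down alone, not drug synergy; viability values seem capped at 1.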 Entries without a mark were called inactive. Not stated in the record: the amount of reagent, the time to read-out.

gene knocked down | PubChem SID | robust z-score, knock-down alone | viability, knock-down alone (fraction of control) | synergy score with BYL719 | synergy score with cetuximab | synergy score with trametinib
AAK1 | SID152151067 | -0.469 | 0.898 | 0.0567 | 0.0388 | 0.00988
PRKAA1 | SID152155693 | 0.506 | 0.96 | -0.0398 | 0.00453 | 0.0873
PRPS1 | SID56479145 | -0.0773 | 0.923 | 0.0943 | 0.217 | 0.0849
STK17B | SID56478762 | -1.06 | 0.86 | -0.0564 | -0.117 | -0.0991
INSR | SID152149459 | 1.13 | 1 | 0 | -0.0166 | 0.0503
FOXP1 | SID135620800 | -1.44 | 0.835 | 0.0604 | 0.0343 | 0.128
PKIA | SID56479258 | 1.13 | 1 | 0.16 | 0.233 | 0.0862
PRKACA | SID135620859 | 0.557 | 0.963 | 0.0949 | -0.0628 | 0.136
CDK18 | SID56478887 | -0.278 | 0.91 | 0.0515 | 0.013 | 0.117
GUCY2D | SID135620972 | -2.84 | 0.746 | 0.0351 | 0.242 | 0.164
PFKFB2 | SID135621246 | 1.01 | 0.992 | 0.0752 | -0.0348 | 0.125
PMVK | SID135621255 | -0.328 | 0.907 | 0.0142 | 0.124 | 0.0527
PIK3R4 | SID135620923 | 0.28 | 0.946 | -0.0517 | 0.167 | 0.00245

2 successive records already listed, for reference:
gene knocked down | PubChem SID | robust z-score, knock-down alone | viability, knock-down alone (fraction of control) | synergy score with BYL719 | synergy score with cetuximab | synergy score with trametinib
PRKACA | SID135620859 | 0.557 | 0.963 | 0.0949 | -0.0628 | 0.136
CDK18 | SID56478887 | -0.278 | 0.91 | 0.0515 | 0.013 | 0.117

Further results follow.
gene knocked down | PubChem SID | robust z-score, knock-down alone | viability, knock-down alone (fraction of control) | synergy score with BYL719 | synergy score with cetuximab | synergy score with trametinib
MAP3K13 | SID56478694 | 0.013 | 0.928 | 0.0271 | -0.0968 | 0.0191
EPHB2 | SID135620616 | -0.983 | 0.864 | -0.0472 | 0.102 | -0.017
PDIK1L | SID152147170 | -0.634 | 0.887 | -0.0469 | 0.0297 | 0.0209
ROCK2 | SID135620850 | -0.606 | 0.889 | 0.0224 | 0.101 | 0.0723
CDK3 | SID56478597 | 1.13 | 1 | 0 | -0.0272 | 0.0673
KMT2B | SID134314396 | -1.11 | 0.856 | -0.0519 | -0.0655 | -0.0492
CSNK2A2 | SID56478861 | -0.621 | 0.888 | -0.0183 | 0.15 | 0.00323
